From patent US20210269483A1, “PEPTIDE COMPOUNDS” (ULTUPHARMA AB, priority 2018, published 2021)
Part of at least one peptide drawing is inferred or uncertain, most often the ends. Starred links: 1 amine or outer side, 2 acyl side, 3 side chain; linkers in the order of their positions; H or OH if unused. Positions of bridges follow the written chain, without caps; N, C: chain ends. Non-standard residues stand in square brackets, D forms with d. Residues, ends and D or L forms follow the SMILES beside them. X2 = CCCCCCC[C@H](CC(=O)[*:1])O[*:2]; Val(3-OH) = CC(C)(O)[C@H](N)C(=O)O; X1 = C/C=C(/N[*:1])C(=O)[*:2]; Dab = NCC[C@H](N)C(=O)O; Dap = NC[C@H](N)C(=O)O

Test system: HepG2
Conditions: HepG2, Human liver cell line
Description: IC50, haemolysis rate and frequency of resistance (FoR, Table 4) was determined using standard protocols by different CROs.

C/C=C1/NC(=O)[C@H](CCN)NC(=O)[C@H](CC(C)C)NC(=O)[C@H](CN)NC(=O)C[C@@H](CCCCCCC)OC(=O)[C@H](CC(=O)O)NC(=O)[C@H](C(C)(C)O)NC(=O)[C@@H](Cc2ccccc2)NC(=O)[C@H](CN)NC(=O)[C@H]([C@@H](C)O)NC1=O [U747, cyclo-((R)-3-hydroxydecanoyl-L-DAPA-L-Leu-L-DABA-(E)-ABA-L-Thr-L-DAPA-D-Phe-L-OHVal-L-Asp)] ([Dap]L[Dab][X1]T[Dap][dF][Val(3-OH)]D; linker N-C via X2)
IC50: 50 (μg/mL)
